Laboratory results reported in the supplement of paper PMC12578635.
This is one part of the list. Rule as the data show it: active = 150% or more and inactive = the rest. Single values are uncertain, as repeats are few or missing.

Test system: Staphylococcus aureus JE2-lux inside RAW 264.7 macrophages
Test: intracellular bacterial bioluminescence relative to DMSO vehicle; higher = higher intracellular bacterial metabolic activity
Conditions: 10 µM; treatment time 4 h; gentamicin 50 µg/ml

Intracellular bacterial bioluminescence, inactive:
CCc1cc(-c2csc(S(=O)(=O)NCc3ccccc3Cl)c2)on1 66.9%
Cc1ccc2nc(Nc3cccc(O)c3)nc(-c3ccccc3)c2c1 99%
CCOC(=O)Cn1c(=O)c2c(nc3n2CCCN3c2ccccc2OC)n(C)c1=O 80.9%
CCOC(=O)C1=C(C)N=c2s/c(=C/c3cccnc3)c(=O)n2C1c1cccs1 (stereo not given) 91.3%
CCOC(=O)c1[nH]c2ccccc2c1NC(=S)Nc1ccc(OC)cc1 61.7%
CCCC(=O)Nc1nc(-c2ccc(Cl)cc2)cc(-c2ccc(OC)cc2)n1 116%
CN1C(=O)c2ccc(NC(=O)CCc3nc(CSc4nc5ccccc5s4)no3)cc2C1=O 57.1%
COc1ccc(NC(=O)c2ncoc2-c2ccccc2C(F)(F)F)c(OC)n1 108%
Cc1nc2cc(NC(=O)c3ccc(S(=O)(=O)N(C)Cc4ccccc4)cc3)ccc2s1 107%
COc1ccc2c(O)c(C(=O)NCC3CCCO3)cnc2c1 (stereo not given) 115%
CCOC(=O)c1cc(NC(=O)CSc2nc(C)nc3sc4c(c23)CCC4)cc(C(=O)OCC)c1 58%
CCOC(=O)c1ccc(NC(=O)CSc2nc3c(c(=O)n2-c2ccc(C)cc2)SCC3)cc1 49.1%
CCN(CC)C(=O)Cn1cc(S(=O)(=O)CC(=O)Nc2ccc(C(N)=O)cc2)c2ccccc21 120%
COc1ccc(/C=c2\sc3nc(-c4ccncc4)nn3c2=O)cc1OC 86%
COc1cccc(CNc2ncnc3oc4c(c23)CCCC4)c1 78.5%
COc1ccc(NC(=O)c2nnc(C3CCN(C(=O)Nc4ccc(C)c(Cl)c4)CC3)s2)cc1 69.5%
CCc1cc2cc(C)ccc2nc1SCC(=O)Nc1c(C)[nH]c(=O)[nH]c1=O 109%
Cc1ccc(-c2nnc3ccccc3c2C(=O)N(C)Cc2ccccc2)cc1 65.6%
CC1CC(C)CN(C(=O)c2ccc3c(=O)n(CCC4=CCCCC4)c(=S)[nH]c3c2)C1 (stereo not given) 35.4%
CCN(CC)C(=O)Cn1nc2c3ccccc3nc(C(C)(C)C)n2c1=O 92.6%
Cn1c(=O)n(CC(N)=O)c(=O)c2c1nc(Br)n2Cc1ccccc1 116%
O=C(NCCc1csc2nc(-c3ccc(F)cc3)nn12)C(=O)Nc1ccc(Cl)cc1 83.9%
O=C(Nc1ccc2c(c1)N(C(=O)C1CC1)CCC2)c1ccc([N+](=O)[O-])cc1 66.4%
COc1ccc(NS(=O)(=O)c2cc3c4c(c2)CCN4C(=O)CC3)cc1Cl 131%
CN(C)/C=N/c1c(C#N)cnn1-c1ccc(Cl)nn1 107%
CCCN1CCN(c2ncnc3sc(C(=O)Nc4cc(OC)cc(OC)c4)c(C)c23)CC1 108%
Nc1c(C(=O)Nc2ccccc2)sc2nc(-c3cccnc3)ccc12 97.9%
O=c1[nH]c(-c2cccc(O)c2)nc2c1Cc1c(ccc3ccccc13)O2 106%
CCCNC(=O)N1CCC(n2c(C)nc3cccnc32)CC1 94.2%
Cc1ccc(CN2CCCn3nc(C(=O)NC(C)C)cc3C2=O)cc1 116%
COc1ccc(C(NC(=O)c2ccc3nc(C)sc3c2)c2ccncc2)cc1 (stereo not given) 95.1%
COc1ccc(Nc2c3c(c(C#N)c4nc5ccccc5n24)CCCC3)cc1 78.7%
O=C(CN1C(=O)COc2ccccc21)NNC(=O)NC1CCCCC1 97.9%
CC(C)[C@H](Cn1nc(C2CC2)ccc1=O)NC(=O)Cn1nnc2ccccc21 115%
CCc1nnc2ccc(C(=O)NCCN3CCCC3)cn12 85.2%
COc1ccc2sc(Nc3ccccc3C#N)nc2c1 93%
COc1cc(NC(=O)C2CCN(c3cnccn3)CC2)cc(OC)c1 67.8%
Cn1nc(C(=O)N2CCCC2)c2c1CCN(S(=O)(=O)c1cccc3cccnc13)C2 22.4%
CC(=O)Oc1ccc(/C=C(\C#N)c2nc(-c3ccc(Cl)cc3)cs2)cc1 135%
CC(NC(=O)c1ncoc1-c1ccc2ccccc2c1)c1ccccn1 (stereo not given) 79.8%
Cc1ccc(S(=O)(=O)N2CCCc3ccc(NC(=O)C(=O)Nc4ccc(F)cc4)cc32)cc1 99.1%
O=C(Nc1ccc(C(O)CN2CCC(O)(c3ccccc3F)CC2)cc1)C1CC1 (stereo not given) 127%
Cc1ccc([N+](=O)[O-])cc1NC(=O)CCN1C(=O)c2ccccc2S1(=O)=O 18.3%
COc1ccc(NC(=O)CSc2nc3ccccc3cc2C)c(OC)c1 81.1%
O=C(Nc1ccc(Oc2cccnc2)cc1)c1[nH]nc2c1CCCCC2 13.7%
Cc1nn2c(C)c(C(=O)N3CCN(C4CCCCC4)CC3)cnc2c1-c1ccccc1 112%
COc1cccc(-c2nc3n(n2)C(c2ccccc2F)C(C(N)=O)=C(C)N3)c1 (stereo not given) 135%
O=c1[nH]c(CSc2nc3ccccc3[nH]2)nc2ccccc12 79.1%
CCOc1cccc2sc(N(Cc3cccnc3)C(=O)Cc3ccc(F)cc3)nc12 36.3%
CCc1ccc(Nc2nc(C)c3nc(C(F)(F)F)n(-c4ccc(CC)cc4)c3n2)cc1 73.5%
CCOC(=O)c1sc(N/N=C2/C(=N)N(c3ccccc3)N=C2C)c(C(=O)OCC)c1C 61.2%
CCOc1ccc(NC(=O)N2CCC(c3nc4cc(C)ccc4[nH]3)CC2)cc1 113%
COc1ccc2cc(C#N)c(SCC(=O)Nc3nonc3C)nc2c1 107%
COc1ccc(CCNc2cc(C)c(C#N)c3nc4ccccc4n23)cc1OC 112%
C=CCOc1ccccc1NC(=O)c1cccc(-n2nc(C)c(Cl)c2C)c1 92.5%
O=C(NNc1nc2cc3c(cc2s1)OCO3)c1cccc(F)c1 80.5%
Cc1ccc2nc(NC(=O)CSc3c(C)cnc4c3c(=O)n(C)c(=O)n4C)sc2c1 91.8%
NC(=O)C1CCN(C2=NC(=O)/C(=C\c3ccc(Cl)cc3Cl)S2)CC1 87.2%
O=C1/C(=C\c2ccncc2)SC(=S)N1Nc1ccc([N+](=O)[O-])cc1[N+](=O)[O-] 122%
Cc1ccc(NS(=O)(=O)c2cc(-c3noc(C4CC4)n3)cs2)nc1 88.9%
O=C(O)c1ccccc1NC(=O)c1c2c(n3ccccc13)C(=O)c1ccccc1C2=O 98%
COC(=O)c1sc(NC(=O)CSc2nnc3ccccn23)c(C(=O)OC)c1C 26.8%
CC(C)c1ccc2[nH]c3nc(SCC(=O)NCc4ccco4)nnc3c2c1 63.6%
CC(=O)c1ccc(NC(=O)CSc2nnnn2-c2cc(C)cc(C)c2)cc1 99.2%
CCOc1ccc(C(=O)Nc2ccc(-c3cn4ccc(C)nc4n3)cc2)cc1 86.3%
CNc1c2c3c(cccc3n(C)c1=O)C(=O)c1ccccc1-2 84.4%
COCCNC(=O)COc1nc(C)nc2oc(C)c(C)c12 94.5%
COc1cccc(/C=C2\SC(=S)N(c3ccc(O)c(C(=O)O)c3)C2=O)c1OC 114%
c1ccc(OCCSc2nnc3sc4ccccc4n23)cc1 76.5%
O=C(Nc1nc2c(cc3c4c(cccc42)CC3)s1)c1ccc(N2C(=O)CCC2=O)cc1 112%
Cc1nc(N2CCC(C(=O)NC(C)C(=O)N3CCCCC3)CC2)c2c(C)c(C)oc2n1 (stereo not given) 65%
Cc1ccc(NC(=O)CS(=O)CC(=O)NC2CCc3ccccc32)cc1Cl (stereo not given) 66.7%
Cc1cccc(NC(=O)c2cnc(N3CCCCC3)c3ccccc23)n1 81.8%
COc1cccc2c1OC(c1ccncc1)N1N=C(c3cc(C)ccc3O)CC21 (stereo not given) 91.2%
Cn1c(=O)c2c(nc(CN3CCN(c4ccccc4)CC3)n2CCN2CCOCC2)n(C)c1=O 121%
COc1ccccc1-c1ocnc1C(=O)N1CCN(c2ncccn2)CC1 98.5%
Cc1cc(C)cc(NC(=O)CSc2nccn(-c3ccc(C)c(Cl)c3)c2=O)c1 100%
Cc1nnc(SCC(=O)Nc2ccc(OC(F)F)cc2)n(N)c1=O 135%
O=C(CSc1nc2sc3c(c2c(=O)[nH]1)CCCC3)NNC(=O)c1ccco1 99.7%
Cn1cnnc1SCc1cc(=O)c(OCC(=O)Nc2ccc(Cl)c(Cl)c2)co1 45.7%
CCOc1ccc(-c2c3c(nc4sc(C(=O)Nc5nccs5)c(N)c24)CCCC3)cc1 77.1%
O=C(CCCS(=O)(=O)c1ccccc1)Nc1nc2ccc(Br)cc2s1 104%
CCc1ccccc1NS(=O)(=O)c1c(C)sc(C)c1-c1cc(C(F)(F)F)on1 79.1%
COc1ccc(CCNC(=O)c2sc3nc4c(C)cccc4cc3c2N)cc1OC 68.8%
CCOC(=O)c1sc2nc3c(cc2c1N)C(=O)CCC3 110%
O=C(CC1Nc2cccc3cccc(c23)NC1=O)Nc1ccc([N+](=O)[O-])cc1 (stereo not given) 65.8%
COc1ccc(Nc2[nH]nnc2C(=O)Nc2ccc(C)c(Cl)c2)cc1Cl 87.4%
O=C(Nc1ccc2sc(NC(=O)C3CCCCC3)nc2c1)c1cccnc1 113%
O=S(=O)(c1ccc(F)cc1)N1CCN(c2cnccn2)CC1 84.7%
N#Cc1ccc(C(=O)Nc2cccc3c2C(=O)c2ccccc2C3=O)cc1 114%

For reference, some entries already given.
Intracellular bacterial bioluminescence, inactive:
COc1ccc(CCNc2cc(C)c(C#N)c3nc4ccccc4n23)cc1OC 112%
C=CCOc1ccccc1NC(=O)c1cccc(-n2nc(C)c(Cl)c2C)c1 92.5%
O=C(NNc1nc2cc3c(cc2s1)OCO3)c1cccc(F)c1 80.5%
Cc1ccc2nc(NC(=O)CSc3c(C)cnc4c3c(=O)n(C)c(=O)n4C)sc2c1 91.8%
NC(=O)C1CCN(C2=NC(=O)/C(=C\c3ccc(Cl)cc3Cl)S2)CC1 87.2%
O=C1/C(=C\c2ccncc2)SC(=S)N1Nc1ccc([N+](=O)[O-])cc1[N+](=O)[O-] 122%
Cc1ccc(NS(=O)(=O)c2cc(-c3noc(C4CC4)n3)cs2)nc1 88.9%
O=C(O)c1ccccc1NC(=O)c1c2c(n3ccccc13)C(=O)c1ccccc1C2=O 98%
COC(=O)c1sc(NC(=O)CSc2nnc3ccccn23)c(C(=O)OC)c1C 26.8%
CC(C)c1ccc2[nH]c3nc(SCC(=O)NCc4ccco4)nnc3c2c1 63.6%
CC(=O)c1ccc(NC(=O)CSc2nnnn2-c2cc(C)cc(C)c2)cc1 99.2%
CCOc1ccc(C(=O)Nc2ccc(-c3cn4ccc(C)nc4n3)cc2)cc1 86.3%
CNc1c2c3c(cccc3n(C)c1=O)C(=O)c1ccccc1-2 84.4%
COCCNC(=O)COc1nc(C)nc2oc(C)c(C)c12 94.5%
COc1cccc(/C=C2\SC(=S)N(c3ccc(O)c(C(=O)O)c3)C2=O)c1OC 114%
c1ccc(OCCSc2nnc3sc4ccccc4n23)cc1 76.5%
O=C(Nc1nc2c(cc3c4c(cccc42)CC3)s1)c1ccc(N2C(=O)CCC2=O)cc1 112%
Cc1nc(N2CCC(C(=O)NC(C)C(=O)N3CCCCC3)CC2)c2c(C)c(C)oc2n1 (stereo not given) 65%
Cc1ccc(NC(=O)CS(=O)CC(=O)NC2CCc3ccccc32)cc1Cl (stereo not given) 66.7%
Cc1cccc(NC(=O)c2cnc(N3CCCCC3)c3ccccc23)n1 81.8%
COc1cccc2c1OC(c1ccncc1)N1N=C(c3cc(C)ccc3O)CC21 (stereo not given) 91.2%
Cn1c(=O)c2c(nc(CN3CCN(c4ccccc4)CC3)n2CCN2CCOCC2)n(C)c1=O 121%
COc1ccccc1-c1ocnc1C(=O)N1CCN(c2ncccn2)CC1 98.5%
Cc1cc(C)cc(NC(=O)CSc2nccn(-c3ccc(C)c(Cl)c3)c2=O)c1 100%
Cc1nnc(SCC(=O)Nc2ccc(OC(F)F)cc2)n(N)c1=O 135%
O=C(CSc1nc2sc3c(c2c(=O)[nH]1)CCCC3)NNC(=O)c1ccco1 99.7%
